# Source: the supplement of paper PMC8728848
# The list shows a part of the results.
# How the values were obtained:
# Test in all cases: glycan array binding signal (z-score within array); higher = stronger binding
# Conditions in all cases: glycan notation: IUPAC condensed, linker removed
# [1] = molecular target: Gal(b1-4)Glc
# Outline: (§1)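 Negative Z-scores can be read as non-binding. The Z-score is calculated within each array and then averaged across arrays of one protein sequence at different concentrations or buffers and across linkers. Arrays, 3228 in all, were curated from the Consortium for Functional Glycomics database and kept only where the protein sequence was available.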
# [2] = molecular target: Gal(b1-4)Glc6S
# Outline: as §1
# [3] = molecular target: Gal(b1-4)GlcNAc
# Outline: as §1
# [4] = molecular target: Gal(b1-4)GlcNAc(a1-6)Gal(b1-4)GlcNAc
# Outline: as §1
# [5] = molecular target: Gal(b1-4)GlcNAc(b1-2)Man
# Outline: as §1
# [6] = molecular target: Gal(b1-4)GlcNAc(b1-2)Man(a1-3)Man(b1-4)GlcNAc(b1-4)GlcNAc
# Outline: as §1
# [7] = molecular target: Gal(b1-4)GlcNAc(b1-2)Man(a1-3)[Gal(b1-4)GlcNAc(b1-2)Man(a1-6)]Man(b1-4)GlcNAc(b1-4)GlcNAc
# Outline: as §1
# [8] = molecular target: Gal(b1-4)GlcNAc(b1-2)Man(a1-3)[Gal(b1-4)GlcNAc(b1-2)Man(a1-6)]Man(b1-4)GlcNAc(b1-4)[Fuc(a1-6)]GlcNAc
# Outline: as §1
# [9] = molecular target: Gal(b1-4)GlcNAc(b1-2)Man(a1-3)[Gal(b1-4)GlcNAc(b1-2)Man(a1-6)][Gal(b1-4)GlcNAc(b1-4)]Man(b1-4)GlcNAc(b1-4)[Fuc(a1-6)]GlcNAc
# Outline: as §1
# [10] = molecular target: Gal(b1-4)GlcNAc(b1-2)Man(a1-3)[Gal(b1-4)GlcNAc(b1-2)Man(a1-6)][GlcNAc(b1-4)]Man(b1-4)GlcNAc(b1-4)[Fuc(a1-6)]GlcNAc
# Outline: as §1
# [11] = molecular target: Gal(b1-4)GlcNAc(b1-2)Man(a1-3)[GlcNAc(b1-2)Man(a1-6)]Man(b1-4)GlcNAc(b1-4)GlcNAc
# Outline: as §1
# [12] = molecular target: Gal(b1-4)GlcNAc(b1-2)Man(a1-3)[GlcNAc(b1-4)][Gal(b1-4)GlcNAc(b1-2)Man(a1-6)]Man(b1-4)GlcNAc(b1-4)GlcNAc
# Outline: as §1
# [13] = molecular target: Gal(b1-4)GlcNAc(b1-2)Man(a1-3)[Man(a1-6)]Man(b1-4)GlcNAc(b1-4)GlcNAc
# Outline: as §1
# [14] = molecular target: Gal(b1-4)GlcNAc(b1-2)Man(a1-6)Man(b1-4)GlcNAc(b1-4)GlcNAc
# Outline: as §1
# [15] = molecular target: Gal(b1-4)GlcNAc(b1-2)Man(a1-6)[GlcNAc(b1-2)Man(a1-3)]Man(b1-4)GlcNAc(b1-4)GlcNAc
# Outline: as §1
# [16] = molecular target: Gal(b1-4)GlcNAc(b1-2)Man(a1-6)[Man(a1-3)]Man(b1-4)GlcNAc(b1-4)GlcNAc
# Outline: as §1
# [17] = molecular target: Gal(b1-4)GlcNAc(b1-2)[Gal(b1-4)GlcNAc(b1-4)]Man(a1-3)[Gal(b1-4)GlcNAc(b1-2)Man(a1-6)]Man(b1-4)GlcNAc(b1-4)GlcNAc
# Outline: as §1
# [18] = molecular target: Gal(b1-4)GlcNAc(b1-2)[Gal(b1-4)GlcNAc(b1-4)]Man(a1-3)[Gal(b1-4)GlcNAc(b1-2)[Gal(b1-4)GlcNAc(b1-6)]Man(a1-6)]Man(b1-4)GlcNAc(b1-4)GlcNAc
# Outline: as §1
# [19] = molecular target: Gal(b1-4)GlcNAc(b1-2)[Gal(b1-4)GlcNAc(b1-4)]Man(a1-3)[GlcNAc(b1-4)][Gal(b1-4)GlcNAc(b1-2)Man(a1-6)]Man(b1-4)GlcNAc(b1-4)GlcNAc
# Outline: as §1
# [20] = molecular target: Gal(b1-4)GlcNAc(b1-2)[Gal(b1-4)GlcNAc(b1-4)]Man(a1-3)[GlcNAc(b1-4)][Gal(b1-4)GlcNAc(b1-2)[Gal(b1-4)GlcNAc(b1-6)]Man(a1-6)]Man(b1-4)GlcNAc(b1-4)GlcNAc
# Outline: as §1
# [21] = molecular target: Gal(b1-4)GlcNAc(b1-2)[Gal(b1-4)GlcNAc(b1-6)]Man(a1-6)[Gal(b1-4)GlcNAc(b1-2)Man(a1-3)]Man(b1-4)GlcNAc(b1-4)GlcNAc
# Outline: as §1
# [22] = molecular target: Gal(b1-4)GlcNAc(b1-2)[Gal(b1-4)GlcNAc(b1-6)]Man(a1-6)[Gal(b1-4)GlcNAc(b1-2)Man(a1-3)]Man(b1-4)GlcNAc(b1-4)[Fuc(a1-6)]GlcNAc
# Outline: as §1
binder,measurement,setting,value
PX9961Q-bfa-504-27-504 (Bacteroides fragilis) (protein) NDWLDRKPADGIPSEDAITNYNDALTARTGMYDGIQGNSNATSYYGARMFYYGDVRADDMQARTQGMRSSSCYEMLYTVDDAPNMWNIPYNVIRRANRLIEAINEKKVTDATEAQIGKIYSEALVVRALVHFDLVRIYGMPYTADNGASLGVPVIVKPLERNDLPSRNTVAEVYTQVITDLTDAINSGYLAKDQTPGYINEWAAKALLTRVYLTKGDNENALKVAEDIITNSPYKLWTNEEYVNAWYKSNGAHTNEMIFEVVNASNDDWTDRNGIAYLLNENGYADAIVTKSFMNMLSQDPKDVRIGMVLPAQYDKDLQEEYGDAKIFINKFPADKDDVGEMRLNNLPLLRLSEVYLSAAEAAAKLGGHQDKAAKYLNEIVQRANPEAKAISEADATVERIILERRKEMIGEGQRYFDALRNNETIVRYKDEGDKGYHYSLIKESQSFDRTYFRAILPIPVDETNVNPNLRAQQNPGY,glycan array binding signal (z-score),[1],-0.183
same,glycan array binding signal (z-score),[2],-0.694
same,glycan array binding signal (z-score),[3],0.022
same,glycan array binding signal (z-score),[4],1.56
same,glycan array binding signal (z-score),[5],0.113
same,glycan array binding signal (z-score),[6],-0.192
same,glycan array binding signal (z-score),[7],-0.612
same,glycan array binding signal (z-score),[8],0.164
same,glycan array binding signal (z-score),[9],-0.182
same,glycan array binding signal (z-score),[10],-0.897
same,glycan array binding signal (z-score),[11],-0.556
same,glycan array binding signal (z-score),[12],-0.747
same,glycan array binding signal (z-score),[13],-0.622
same,glycan array binding signal (z-score),[14],-0.661
same,glycan array binding signal (z-score),[15],-0.167
same,glycan array binding signal (z-score),[16],-0.621
same,glycan array binding signal (z-score),[17],-0.277
same,glycan array binding signal (z-score),[18],-0.731
same,glycan array binding signal (z-score),[19],-0.27
same,glycan array binding signal (z-score),[20],0.322
same,glycan array binding signal (z-score),[21],2.39
same,glycan array binding signal (z-score),[22],0.014

# Some of the entries so far, bar-delimited:
binder | measurement | setting | value
PX9961Q-bfa-504-27-504 (Bacteroides fragilis) (protein) NDWLDRKPADGIPSEDAITNYNDALTARTGMYDGIQGNSNATSYYGARMFYYGDVRADDMQARTQGMRSSSCYEMLYTVDDAPNMWNIPYNVIRRANRLIEAINEKKVTDATEAQIGKIYSEALVVRALVHFDLVRIYGMPYTADNGASLGVPVIVKPLERNDLPSRNTVAEVYTQVITDLTDAINSGYLAKDQTPGYINEWAAKALLTRVYLTKGDNENALKVAEDIITNSPYKLWTNEEYVNAWYKSNGAHTNEMIFEVVNASNDDWTDRNGIAYLLNENGYADAIVTKSFMNMLSQDPKDVRIGMVLPAQYDKDLQEEYGDAKIFINKFPADKDDVGEMRLNNLPLLRLSEVYLSAAEAAAKLGGHQDKAAKYLNEIVQRANPEAKAISEADATVERIILERRKEMIGEGQRYFDALRNNETIVRYKDEGDKGYHYSLIKESQSFDRTYFRAILPIPVDETNVNPNLRAQQNPGY | glycan array binding signal (z-score) | [10] | -0.897
same | glycan array binding signal (z-score) | [12] | -0.747
